Reference: PMC6707328
No constants are given. Whether binding was seen depends on the method and setting. In cells and extracts the contact can be indirect. Some entries that bind do so weakly or less than the wild type.

Sequences of proteins named here, by UniProt entry; tags and fusion partners are left off.
UniProt P47239: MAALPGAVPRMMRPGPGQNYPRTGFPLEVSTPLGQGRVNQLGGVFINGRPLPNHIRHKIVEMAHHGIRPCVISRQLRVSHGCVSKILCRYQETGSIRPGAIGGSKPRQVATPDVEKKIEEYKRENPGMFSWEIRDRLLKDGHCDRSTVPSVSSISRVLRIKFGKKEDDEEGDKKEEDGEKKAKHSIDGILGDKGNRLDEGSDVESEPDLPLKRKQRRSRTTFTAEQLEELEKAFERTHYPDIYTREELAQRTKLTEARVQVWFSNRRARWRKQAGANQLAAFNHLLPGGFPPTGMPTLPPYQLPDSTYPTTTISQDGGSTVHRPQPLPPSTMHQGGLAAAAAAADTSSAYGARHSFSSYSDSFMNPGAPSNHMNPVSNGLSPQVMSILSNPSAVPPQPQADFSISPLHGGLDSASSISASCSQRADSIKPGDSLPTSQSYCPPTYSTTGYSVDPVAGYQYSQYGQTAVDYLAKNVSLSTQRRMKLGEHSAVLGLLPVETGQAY

Experiments:
[1] = molecular target: MBP-Pax7 (UniProt P47239); test: pull-down; MBP fusion proteins on maltose amylose beads incubated with 35S-labeled in vitro translated protein in TNEN50 (50 mM Tris pH 7.5, 5 mM EDTA, 50 mM NaCl, 0.1% NP-40) with 1 mM PMSF and 2% BSA, 4 h at 4 °C; three washes with TNEN125; SDS-PAGE and autoradiography; only the target purified
[2] = molecular target: MBP-βGal [β-galactosidase: P00722]; test: as above

B1: Tpit (protein, UniProt Q99ME7 1-446)
chain: MSELATQKAGEGTVSRLLNVVESELQAGREKGDPTEKQLQIILEDAPLWQRFKEVTNEMIVTKNGRRMFPVLKISVTGLDPNAMYSLLLDFVRTDSHRWKYVNGEWVPAGKPEVSSHSCVYIHPDSPNFGAHWMKAPISFSKVKLTNKLNGGGQIMLNSLHKYEPQVHIVRVGGAHRMVMNCSFPETQFIAVTAYQNEEITALKIKYNPFAKAFLDAKERNHLKDVPEAISESQHVTYSHLGGWILSNPDGVCTAANSNYQYATPLPLPAPHTHHGCEHYAGLRGHRQAPYPSAYMHRNHSPSVNLIESSSNNLQVFSGPDSWTSLSSTPHASILSVPHSNGPINPGPSPYPCLWTISNGGGGPVASGSEVHASTSGTILLGNPAVTSPSSLLPTQATTSAGVEVLGEPSLTSIAVSTWTAVASHPLPGWGGPGGAGRHSSSSLDS
modifications: 35S-labeled
With B1 the binding [1] was “binds” and the binding [2] was “no binding”.
